# Reference: PubChem BioAssay AID330 (DTP/NCI, 2004)
# The list does not hold the whole screen: it gathers tests that were run many times, whatever their T/C, doses with no T/C, and many T/C values between a quarter and a half above the control. Further doses and runs are listed elsewhere. T/C gives the treated animals as a percentage of the vehicle group. Some entries give survivors of the animals treated and no T/C: the source holds a T/C of zero for them, seemingly a mark for toxic or unscored doses. Some doses without a T/C left all or most animals alive at the check, yet need not have been tolerated: the source hardly ever lists a survival T/C far under the control, and the zero likely stands for such cases as well. Counts of survivors are from the toxicity check (mostly the fifth day) where no day follows; animals may have died later. Schedules are NCI's codes, read here as Q, the interval in days (D) or hours (H), X, the number of doses. Some doses were run more than once; the values are given in rising order. For survival time, this PubChem deposit counts one and a half times the control or more as active, and values a quarter to a half above the control carry no call in these data; other NCI protocols may use other cut-offs. Some T/C values are followed by the survivors on the day toxicity was checked, most often the fifth; where none is given, no animal had died by that day.
# Test system: P388 leukemia ip, CD2F1 mice, survival T/C
# Assay: NCI In Vivo Anticancer Drug Screen. Data for tumor model P388 Leukemia (intraperitoneal) in CD2F1 (CDF1) mice
# Conditions: T/C endpoint: median survival time, higher T/C = longer survival
# [1] = dose: 50.0 mg/kg/injection, schedule: Q01DX009 (ip), vehicle: Klucel (hydroxypropylcellulose) (HPC)
# [2] = dose: 100.0 mg/kg/injection, schedule: Q01DX009 (ip), vehicle: Klucel (hydroxypropylcellulose) (HPC)
# [3] = dose: 200.0 mg/kg/injection, schedule: Q01DX009 (ip), vehicle: Klucel (hydroxypropylcellulose) (HPC)
# [4] = dose: 400.0 mg/kg/injection, schedule: Q04DX003 (ip), vehicle: saline with Tween-80
# [5] = dose: 240.0 mg/kg/injection, schedule: Q01DX005 (ip), vehicle: saline with Tween-80
# [6] = dose: 200.0 mg/kg/injection, schedule: Q01DX005 (ip), vehicle: saline with Tween-80
# [7] = dose: 25.0 mg/kg/injection, schedule: Q01DX009 (ip), vehicle: saline with Tween-80
# [8] = dose: 50.0 mg/kg/injection, schedule: Q01DX009 (ip), vehicle: saline with Tween-80
# [9] = dose: 200.0 mg/kg/injection, schedule: Q01DX009 (ip), vehicle: saline
# [10] = dose: 100.0 mg/kg/injection, schedule: Q01DX009 (ip), vehicle: saline with Tween-80
# [11] = dose: 200.0 mg/kg/injection, schedule: Q01DX009 (ip), vehicle: saline with Tween-80
# [12] = dose: 200.0 mg/kg/injection, schedule: Q01DX005 (ip), vehicle: Klucel (hydroxypropylcellulose) (HPC)
# [13] = dose: 100.0 mg/kg/injection, schedule: Q01DX005 (ip), vehicle: Klucel (hydroxypropylcellulose) (HPC)
# [14] = dose: 200.0 mg/kg/injection, schedule: Q04DX003 (ip), vehicle: saline with Tween-80
# [15] = dose: 50.0 mg/kg/injection, schedule: Q01DX009 (ip), vehicle: saline
# [16] = dose: 100.0 mg/kg/injection, schedule: Q04DX002 (ip), vehicle: saline with Tween-80
structure (smiles),measurement,setting,value
c1cc[c]([Bi]([c]2ccccc2)[c]2ccccc2)cc1,T/C,[1],133 % of control
same,survivor count,[2],6 of 6
same,survivor count,[3],3 of 6 and 4 of 6
O=C(O)C(CSC(c1ccccc1)(c1ccccc1)c1ccccc1)N=Cc1ccccc1O (centres undefined),T/C,"dose: 66.0 mg/kg/injection, schedule: Q04DX003 (ip), vehicle: saline with Tween-80",136 % of control
same,survivor count,[4],3 of 6
CC1=CC2N(C=C1)C(c1ccccc1)=NON2c1cc(C)ccn1 (centres undefined),survivor count,"dose: 60.0 mg/kg/injection, schedule: Q01DX005 (ip), vehicle: saline with Tween-80",6 of 6
same,survivor count,"dose: 120.0 mg/kg/injection, schedule: Q01DX005 (ip), vehicle: saline with Tween-80",6 of 6
same,survivor count,[5],6 of 6
ClC1CCCCC1C(C1CCCCC1)C1CCCCC1 (centres undefined),survivor count,[6],5 of 5
C1C2OC2C2C1C1CC2C2OC12 (centres undefined),survivor count,"dose: 25.0 mg/kg/injection, schedule: Q01DX009 (ip), vehicle: Klucel (hydroxypropylcellulose) (HPC)",6 of 6
same,survivor count,[1],5 of 6
same,survivor count,[2],0 of 6
same,survivor count,[3],0 of 6
C=C1C(=O)O[C@@H]2[C@H](O)[C@@H](C)[C@@H]3C=CC(=O)[C@@]3(C)[C@H](OC(=O)C=C(C)C)[C@H]12,T/C,"dose: 1.56 mg/kg/injection, schedule: Q01DX009 (ip), vehicle: saline",140 % of control
same,T/C,"dose: 3.12 mg/kg/injection, schedule: Q01DX009 (ip), vehicle: saline with Tween-80",131 % of control
same,T/C,"dose: 6.25 mg/kg/injection, schedule: Q01DX009 (ip), vehicle: saline",143 % of control
same,survivor count,[7],1 of 6 and 5 of 6
same,T/C,"dose: 25.0 mg/kg/injection, schedule: Q01DX009 (ip), vehicle: saline",129 % of control
same,survivor count,[8],0 of 6
Cc1cc(C)n(-c2nnc(-n3nc(C)cc3C)c3ccccc23)n1,survivor count,[9],6 of 6
OC(c1cc2cc(Br)ccc2c2cc(Br)ccc12)C1CCCCN1 (centres undefined),survivor count,[8],6 of 6
same,survivor count,[10],0 of 6
same,survivor count,[11],0 of 6
CC(C)NC(=O)OCc1ncn(-c2ccccc2)c1COC(=O)NC(C)C,survivor count,[12],6 of 6
same,survivor count,"dose: 400.0 mg/kg/injection, schedule: Q01DX005 (ip), vehicle: Klucel (hydroxypropylcellulose) (HPC)",6 of 6
CN1C2C=C(c3ccc(C(F)(F)F)cc3)CC1CC2 (centres undefined),survivor count,"dose: 50.0 mg/kg/injection, schedule: Q01DX005 (ip), vehicle: Klucel (hydroxypropylcellulose) (HPC)",3 of 6
same,survivor count,[12],0 of 6
same,survivor count,"dose: 200.0 mg/kg/injection, schedule: Q01DX005 (ip), vehicle: saline",1 of 6
COC(=O)c1nc(=S)[nH]c(C(=O)OC)c1C(=O)c1ccc(O)c(OC)c1,survivor count,"dose: 240.0 mg/kg/injection, schedule: Q01DX005 (ip), vehicle: Klucel (hydroxypropylcellulose) (HPC)",0 of 6
CCc1ccc(C2=C(Cl)C(=O)C(c3ccccc3)=C(Cl)C2=O)cc1,survivor count,[13],2 of 5
same,survivor count,[12],1 of 5
CCCCCC(C)(O)C1=NCCN1 (centres undefined),survivor count,[13],2 of 6
same,survivor count,[12],0 of 6
CCN(CC)CCCC(C)NC1CCCc2cc3c(cc21)C(=O)c1ccccc1C3=O (centres undefined),survivor count,"dose: 100.0 mg/kg/injection, schedule: Q04DX003 (ip), vehicle: saline with Tween-80",0 of 6
same,survivor count,[14],0 of 6
same,survivor count,[4],0 of 6
O=C1CS/C(=N\C(=O)Nc2cccc(C(F)(F)F)c2)N1,survivor count,[15],6 of 6
same,survivor count,[10],5 of 6
same,survivor count,[11],4 of 6
CC(C)c1cc(C(C)C)c(S(=O)(=O)ON)c(C(C)C)c1,survivor count,"dose: 400.0 mg/kg/injection, schedule: Q04DX002 (ip), vehicle: saline",0 of 6
O=C1N=C2OC3(CCCCC3)OC(=O)N2C2(CCCCC2)O1,survivor count,"dose: 400.0 mg/kg/injection, schedule: Q01DX009 (ip), vehicle: distilled water + Tween-80",0 of 6
Cc1cc(=O)oc2c3c(c4c(c12)OC(C)(C)C=C4)OC(C)(C)C=C3,survivor count,[5],6 of 6
CCN(C(=S)NNC(=S)N/N=C(\C)c1ccccn1)c1ccccc1,survivor count,[6],6 of 6
CC(=O)N(C)c1ccc(NC(=O)Nc2cc(C)ccc2C)cc1,survivor count,[9],6 of 6
CC1=CC(=Nc2ccc(N(C)C)cc2)C=CC1=O,survivor count,[7],4 of 6 and 5 of 6
same,survivor count,[8],2 of 6
same,survivor count,[10],0 of 6
same,survivor count,[11],0 of 6
same,survivor count,"dose: 400.0 mg/kg/injection, schedule: Q01DX009 (ip), vehicle: saline with Tween-80",0 of 6
C=CCNc1ncnc2c1cnn2C,survivor count,[14],3 of 6
c1cc2n[pH]nc2cn1 (centres undefined),survivor count,"dose: 60.0 mg/kg/injection, schedule: Q01DX005 (ip), vehicle: saline",0 of 6
same,survivor count,"dose: 120.0 mg/kg/injection, schedule: Q01DX005 (ip), vehicle: saline",0 of 6
same,survivor count,"dose: 240.0 mg/kg/injection, schedule: Q01DX005 (ip), vehicle: saline",0 of 6
[N-]=[N+]=NCC(=O)N1c2ccccc2Sc2ccccc21,survivor count,"dose: 400.0 mg/kg/injection, schedule: Q01DX009 (ip), vehicle: other",4 of 6
CCCC[As](CCCC)SC1OC(C2COC(C)(C)O2)C2OC(C)(C)OC12 (centres undefined),survivor count,"dose: 12.5 mg/kg/injection, schedule: Q01DX009 (ip), vehicle: distilled water + Tween-80",4 of 6
same,survivor count,"dose: 25.0 mg/kg/injection, schedule: Q01DX009 (ip), vehicle: distilled water + Tween-80",0 of 6
same,survivor count,"dose: 50.0 mg/kg/injection, schedule: Q01DX009 (ip), vehicle: distilled water + Tween-80",6 of 6
same,survivor count,"dose: 100.0 mg/kg/injection, schedule: Q01DX009 (ip), vehicle: distilled water + Tween-80",2 of 6
same,survivor count,"dose: 200.0 mg/kg/injection, schedule: Q01DX009 (ip), vehicle: distilled water + Tween-80",0 of 6
O=C1c2cc([N+](=O)[O-])cc3cc([N+](=O)[O-])cc(c23)C(=O)N1CCNCCNCCNCCN1C(=O)c2cc([N+](=O)[O-])cc3cc([N+](=O)[O-])cc(c23)C1=O,T/C,"dose: 25.0 mg/kg/injection, schedule: Q04DX002 (ip), vehicle: saline with Tween-80",128 % of control
same,T/C,"dose: 50.0 mg/kg/injection, schedule: Q04DX002 (ip), vehicle: saline with Tween-80",137 % of control
same,T/C,[16],125 % of control
same,survivor count,[16],4 of 6 and 6 of 6
same,survivor count,"dose: 200.0 mg/kg/injection, schedule: Q04DX002 (ip), vehicle: saline with Tween-80",1 of 6
same,survivor count,"dose: 400.0 mg/kg/injection, schedule: Q04DX002 (ip), vehicle: saline with Tween-80",0 of 6
O=C(c1ccc2c(c1)C(=O)NC2=O)c1ccc2c(c1)C(=O)NC2=O,survivor count,[11],6 of 6
NC(Cc1ccccc1)C(=O)Nc1ccncc1 (centres undefined),survivor count,"dose: 100.0 mg/kg/injection, schedule: Q01DX001 (ip), vehicle: saline",0 of 6
same,survivor count,"dose: 200.0 mg/kg/injection, schedule: Q01DX001 (ip), vehicle: saline",0 of 6
same,survivor count,"dose: 400.0 mg/kg/injection, schedule: Q01DX001 (ip), vehicle: saline",0 of 6
CNC(=O)Oc1coc(CCl)cc1=O,T/C,[7],130 % of control
same,T/C,[8],130 % of control [5 of 6 alive]
same,survivor count,[10],1 of 6
COc1ccccc1N=N/C(=N\Nc1ccccc1OC)C(=O)Nc1ccccc1,survivor count,[15],6 of 6
same,survivor count,[9],5 of 6
